Results on four compounds are retold here after patent publication US20040029860A1, “Anti-proliferative drugs” (priority 2000, published 2004).

The test system of this data set is different cell-lines. The data set is described as follows: mean IC50 over cell lines and therapeutic index. The conditions noted are these: safe daily dose (mg) divided by mean IC50 (μM).

Take `CN(C)CCCN1c2ccccc2Sc2ccc(Cl)cc21` [Chlorpromazine]: the “Therapeutic index Mean safe dose/IC50” value turned out to be 600 mg/45.7 = 13.1.

For `OCCN1CCN(CC/C=C2/c3ccccc3Sc3ccc(C(F)(F)F)cc32)CC1` [Flupentixiol], the “Therapeutic index Mean safe dose/IC50” value was determined as 40 mg/18.25 = 2.19.

`OCCN1CCN(CCCN2c3ccccc3Sc3ccc(Cl)cc32)CC1` [Perphenazine]: the “Therapeutic index Mean safe dose/IC50” value is listed as 40 mg/20.0 = 2.0.

With `CN1CCN(CCCN2c3ccccc3Sc3ccc(C(F)(F)F)cc32)CC1` [Trifluoperazine], the “Therapeutic index Mean safe dose/IC50” value was determined as 40 mg/16.7 = 2.39.
